In US8187572B2, “Diabetogenic rat model” (Hoffmann-La Roche Inc., priority 2005, dated 2012):

Assay: Body weight, food intake and water intake of Pioglitazone-treated ZDF rats
Format: in vivo, rat
Settings: all treated groups; increased from ≈30 g; 10 mg/kg/d food-admix
Procedure: ZDF and ZL rats were ordered at the age of 5 W. After arrival and following 1 week of adaptation, 1 ml of blood was collected retro-orbitally after a short narcosis (isoflurane) in 6 W-old rats. […] A group of 10 ZL rats was formed and followed as a control group along the study duration (FIG. 3). Three groups of ZDF rats receive either vehicle (untreated) or Pioglitazone (treated) as food Admix. In each untreated/treated group of ZDF rats, one is fed a high fat diet during 11 weeks (group_full), during 4 weeks (group_mild) or during 2 weeks (group_low). Treatment was administered orally and prepared as food-admix. This mode of administration was preferred over oral gavage to reduce stress to the animals, avoid dosing errors and minimize handling. Pioglitazone (sufficient for 90 kg food) was dissolved in 18 liters of water. For the three treatment groups of 10 rats each, 6 liters of solution was combined with 30 kg of the diabetogenic diet (KLIBA 2437 with 7% of fat) or 12 liters were mixed with 60 Kg of the chow diet (Kliba 3436). The food was carefully dried at a temperature not exceeding 40° C. and then pelleted. […] The graphs and tables present the data according to expected daily dose. […] Body weight and food consumption were recorded with an on-line data acquisition system ([…]) using electronic balances.

SMILES: CCc1ccc(CCOc2ccc(CC3SC(=O)NC3=O)cc2)nc1.Cl (racemic) [Pioglitazone, (±)-5-[[4-[2-(5-ethyl-2-pyridinyl)ethoxy]phenyl]methyl]-2,4-]
- daily food intake (measured over 24 hours): ≈ 50 g
